The text below walks through data of article PMC7819943, “Rice protein-binding microarrays: a tool to detect cis-acting elements near promoter regions in rice”.

The other results are listed elsewhere or left out.

For this assay, the target named is T1, OsSMF1 (Oryza sativa, UniProt Q6ZLB0 1-436).
T1 sequence: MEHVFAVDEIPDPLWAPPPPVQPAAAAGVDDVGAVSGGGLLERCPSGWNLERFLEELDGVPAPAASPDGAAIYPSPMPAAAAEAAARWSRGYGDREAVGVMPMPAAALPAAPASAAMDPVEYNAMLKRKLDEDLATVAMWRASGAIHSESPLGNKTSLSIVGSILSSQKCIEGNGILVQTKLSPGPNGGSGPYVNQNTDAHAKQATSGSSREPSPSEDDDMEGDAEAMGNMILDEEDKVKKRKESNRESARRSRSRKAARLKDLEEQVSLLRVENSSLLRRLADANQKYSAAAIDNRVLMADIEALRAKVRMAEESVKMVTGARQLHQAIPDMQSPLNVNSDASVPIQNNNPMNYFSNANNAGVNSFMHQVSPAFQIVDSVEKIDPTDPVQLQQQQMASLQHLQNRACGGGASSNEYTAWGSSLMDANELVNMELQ
The experiment in a line: protein-binding microarray (RPBM); PBS, 2% BSA, 51.3 ng/ul salmon testes DNA, 50 uM zinc acetate, 200 nM TF, 25 C, 1 h; high values mean tight binding. As to conditions: protein: recombinant; tags: N-terminal polyhistidine and DsRed monomer fusion (pET32a); chain copies: 2; label: CyDye5-dUTP incorporated in the synthesized complementary strand; 3' TTTTT single-stranded linker to array surface; dsDNA, one strand shown. The method, boiled down:
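The binding signal is fluorescence intensity per array feature (arbitrary units). Readings came from an Axon 4000B scanner after a washed, 2% BSA-blocked, double-stranded custom Agilent array had been incubated for 1 h at 25 °C with 200 nM protein and 50 µM zinc acetate. The protein was a Ni–NTA-purified transcription factor fused N-terminally to polyhistidine and DsRed, expressed in E. coli BL21-CodonPlus.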
With “TTACCATGCTATGTCATTTTGGCCCCTTCAAAATGCATAGCGGAGTCACCTAGTGCAG”, the binding signal is 3400 fluorescence intensity (a.u.). Under “TCCTCTCCTCATCATCACTCGCTCGCTCGCTCTCGCGCTTCGGAGTCACCTAGTGCAG” stands 3270 fluorescence intensity (a.u.); under “AGTGGAAGCAGGTCTTTTACTGATCGATCAAGGTCTGATGCGGAGTCACCTAGTGCAG”, 16800 fluorescence intensity (a.u.). As for “TATTTATAACAAAATATGACGTCTTACAATATATGCATTTCGGAGTCACCTAGTGCAG”, the binding signal was 3830 fluorescence intensity (a.u.). Consider “CTGAAATGACCAGAATGCCCCTCCGTCCTACCCCACAATCCGGAGTCACCTAGTGCAG”, for which the binding signal is 19900 fluorescence intensity (a.u.).

Take “TTGACGGTATACACCAATGCATGACGCACAAGGTTTGGCCCGGAGTCACCTAGTGCAG”: the binding signal was 7940 fluorescence intensity (a.u.). For “CGCCCGCCCAACCACCGCCGGCTCAGTCGCTCTAACACCTCGGAGTCACCTAGTGCAG”, the binding signal is 4480 fluorescence intensity (a.u.).

Turning to “CAGATACATTTGTTTATGACGTTCCCATCGTGGAGCATGTCGGAGTCACCTAGTGCAG”, the binding signal is 3220 fluorescence intensity (a.u.). For “TACTCTTTTGCTGCATCATCGATCGATCGCTCATCCATCGCGGAGTCACCTAGTGCAG”, the binding signal was 4110 fluorescence intensity (a.u.). Regarding “CCCTAGGGTGATGACTGACGCGACTCTAAAGTTTATCGAACGGAGTCACCTAGTGCAG”, the binding signal is 5600 fluorescence intensity (a.u.).

On to “AGCTTGTCGTCGTCACCGGCCTCGCCGCTGCTTGGTCCATCGGAGTCACCTAGTGCAG”, for which the binding signal was 5340 fluorescence intensity (a.u.). For the sequence “TCACTGGGAGTTAAAATTTAACTCATGGTGACGTGGACGACGGAGTCACCTAGTGCAG”, the binding signal was 24500 fluorescence intensity (a.u.). Take “TCTCCCCTCTACAGTATGTCTCCATATATTCACATGTACGCGGAGTCACCTAGTGCAG”: the binding signal was 3450 fluorescence intensity (a.u.). Take “CCATTTGCAGCCCATCTTGACGTATGCAGCAGTTTCATGGCGGAGTCACCTAGTGCAG”: the binding signal is 5650 fluorescence intensity (a.u.).

Turning to “CCTGTCCTCGCAGGCGTGCGCCTCCTCCTCGGAGACCCTGCGGAGTCACCTAGTGCAG”, the binding signal was 3640 fluorescence intensity (a.u.). Under “GCCGTAGCCAATCGCTCCACCTCGGCTCCAGCAGTCCGGCCGGAGTCACCTAGTGCAG” stands 3150 fluorescence intensity (a.u.); under “CCAACCATGCTTCGCAGTTGTCACAGAACGTCAACAGTGCCGGAGTCACCTAGTGCAG”, 3460 fluorescence intensity (a.u.); under “CAAGGGTGTCGACATGATGAGCCACGCGCCGGCGCGTGGGCGGAGTCACCTAGTGCAG”, 3640 fluorescence intensity (a.u.).

Take “CTCCACGTCGTCGGCACTGCCACCTCCTACGCCACCGCGGCGGAGTCACCTAGTGCAG”: the binding signal was 6340 fluorescence intensity (a.u.). Under “AGCAATAGCTATGGCAGCGGATCCGCGCCCGAGATTTCCTCGGAGTCACCTAGTGCAG” stands 3190 fluorescence intensity (a.u.); under “CTCTCACTGTCCGTACGTCGTCGGCTTGATCACCAACCTTCGGAGTCACCTAGTGCAG”, 25300 fluorescence intensity (a.u.); under “AAAACTACATTTGCTGCTCTAGCTTAGGAGATACACAACTCGGAGTCACCTAGTGCAG”, 3200 fluorescence intensity (a.u.).

For the sequence “GCTCACCTCCAGCTATATATACACATCACAAGCTAGCTGCCGGAGTCACCTAGTGCAG”, the binding signal was 5050 fluorescence intensity (a.u.). Take “CGTATCATTTCGCAAATCCCGATTGGTCCCCGTGGCGCAGCGGAGTCACCTAGTGCAG”: the binding signal was 19900 fluorescence intensity (a.u.). In the case of “AGTTCTTCATCAATATGATTAAGTGTGACATCAGGCCTGACGGAGTCACCTAGTGCAG”, the binding signal was 4850 fluorescence intensity (a.u.).

As to “TTTTGTCTTTGAAGCATCCGCTGAGCTGGGCTCGAACTAGCGGAGTCACCTAGTGCAG”, the binding signal is 3690 fluorescence intensity (a.u.). With “CAGTTTCTAAGTGATGTGGATTAACTAAGGGTAAATTGGACGGAGTCACCTAGTGCAG”, the binding signal was 3420 fluorescence intensity (a.u.). On to “CCACCGCACTGGCAAATCAAGCGGCAGTGACGCAGAGTATCGGAGTCACCTAGTGCAG”, for which the binding signal is 3900 fluorescence intensity (a.u.).

As to “TGGTAATTGAATACGTAAGCCGAACACTATGCTTCTAATACGGAGTCACCTAGTGCAG”, the binding signal was 3930 fluorescence intensity (a.u.). Consider “GGGTGGAGGAGGAGGGAGAAGATGAAGCAAACGAGAGAGACGGAGTCACCTAGTGCAG”, for which the binding signal was 4720 fluorescence intensity (a.u.).

As to “ACAGACAATTCACAGGGGTCCTACTGCAAATATGTTACTACGGAGTCACCTAGTGCAG”, the binding signal was 3160 fluorescence intensity (a.u.). “GGGTATGACGATCGACAGCATGACGAGGATCCAAATAGTTCGGAGTCACCTAGTGCAG”: the binding signal was 5750 fluorescence intensity (a.u.).

Turning to “GTAATAACCTTTTCGTCGACGAGGCATAAATCGGCTGCACCGGAGTCACCTAGTGCAG”, the binding signal was 3390 fluorescence intensity (a.u.). Turning to “TACTTAATTTCTTTTAAATTGGTTCATATGTGTTTAGTTGCGGAGTCACCTAGTGCAG”, the binding signal was 31800 fluorescence intensity (a.u.).

For “CTCCAACGTCGCCGCTCCAGCCCCGATCCACGCCGCCGCACGGAGTCACCTAGTGCAG”, the binding signal is 3400 fluorescence intensity (a.u.). For “GCGAGAGGGGACTGGGGAGGGGAGGGGCGGCGCTCGCTGGCGGAGTCACCTAGTGCAG”, the binding signal is 8160 fluorescence intensity (a.u.).

“TAGCTCTCGCCAGTCCACGTAGCCCAATCCACAACCGCCACGGAGTCACCTAGTGCAG”: the binding signal is 5700 fluorescence intensity (a.u.).

For the sequence “TAATCTATACGGAGGATGTTGCCATGTAGGACCCCAAAAGCGGAGTCACCTAGTGCAG”, the binding signal is 35500 fluorescence intensity (a.u.). Under “AAATAAGAATGATGTCACGAGAAAATCACTCTCATCATCACGGAGTCACCTAGTGCAG” stands 5390 fluorescence intensity (a.u.). Under “ACCGTCCTCCTCGTCACCCACCAGCTCGACTTCCTCCGCACGGAGTCACCTAGTGCAG” stands 5570 fluorescence intensity (a.u.); under “ACGCAGTAATGACGTCACAATGTTGGTATCACCGAAACCACGGAGTCACCTAGTGCAG”, 16500 fluorescence intensity (a.u.).

On to “TATGGCAAGCTAAAGTCTCTGTTTCAAATAAACGACACGTCGGAGTCACCTAGTGCAG”, for which the binding signal was 3380 fluorescence intensity (a.u.). The figure for “CGGATCGACGGACTGGACGGGGAGTTTTGAGATTGCGTCACGGAGTCACCTAGTGCAG” is 3640 fluorescence intensity (a.u.); for “AGGACAGAGGAGAGGGGAGGGGTAATATGTGTCCAATAATCGGAGTCACCTAGTGCAG” it is 4080 fluorescence intensity (a.u.); for “AACCCACACACACCTCACACCTCACCACCATCACCTCCTCCGGAGTCACCTAGTGCAG” it is 3140 fluorescence intensity (a.u.). The figure for “CGCCGTCTCCACGGCCGAAGCTTCCACTTCAGCCCCACGTCGGAGTCACCTAGTGCAG” is 4060 fluorescence intensity (a.u.); for “TAGAAATATTTGGTCACCTGTTTTCTCGGTGACGATTGATCGGAGTCACCTAGTGCAG” it is 3570 fluorescence intensity (a.u.). In the case of “AATTCGCAGAAACCCGGTGACTTGTTTAGGACCCTAATGACGGAGTCACCTAGTGCAG”, the binding signal is 7240 fluorescence intensity (a.u.). Under “GCTCCATGACACGACAGCGCGTTTGGGAACGCCTCGTGATCGGAGTCACCTAGTGCAG” stands 4960 fluorescence intensity (a.u.). For the sequence “AGATATGTATGTGTGAGTATTCTAGTAATGAACTGCACCACGGAGTCACCTAGTGCAG”, the binding signal was 3920 fluorescence intensity (a.u.). Under “CAAATAGAACATAGCCATACGAAATGACTCACTAACCTCTCGGAGTCACCTAGTGCAG” stands 4910 fluorescence intensity (a.u.). On to “GGTGGCCCTCCCCTTAGCGGCATATCTCCTCGGTGGCGGGCGGAGTCACCTAGTGCAG”, for which the binding signal is 3450 fluorescence intensity (a.u.).

For “TCCCTCACTCCAACCCATCCGGTGACATCAATCCACACACCGGAGTCACCTAGTGCAG”, the binding signal is 5810 fluorescence intensity (a.u.).

Consider “CCTATATGGCCCAACATGTCATCTCCCTACTCCCTCTTCTCGGAGTCACCTAGTGCAG”, for which the binding signal was 3840 fluorescence intensity (a.u.).
